We go through 1 substance from publication PMC12375108.

Amino acid sequences for entries named in this document (tags omitted). Residues count along the entry.
UniProt P26443, residues 54-558: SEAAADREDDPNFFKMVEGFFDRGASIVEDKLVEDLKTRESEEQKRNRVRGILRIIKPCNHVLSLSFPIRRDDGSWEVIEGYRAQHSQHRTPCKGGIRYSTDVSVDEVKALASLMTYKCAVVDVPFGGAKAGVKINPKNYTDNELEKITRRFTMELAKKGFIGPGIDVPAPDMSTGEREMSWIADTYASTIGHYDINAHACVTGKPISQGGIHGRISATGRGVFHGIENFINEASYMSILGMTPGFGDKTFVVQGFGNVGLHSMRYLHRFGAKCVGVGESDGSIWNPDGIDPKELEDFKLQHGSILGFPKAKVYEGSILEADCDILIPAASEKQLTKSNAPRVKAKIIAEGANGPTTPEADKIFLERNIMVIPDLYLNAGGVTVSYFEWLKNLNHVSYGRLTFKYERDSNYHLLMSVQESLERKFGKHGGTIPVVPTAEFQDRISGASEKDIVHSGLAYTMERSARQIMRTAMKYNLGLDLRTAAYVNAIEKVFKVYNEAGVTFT

No constants are given. Whether binding was seen depends on the method and setting. Binding seen in cells or lysates may run through a third protein. Some entries that bind do so weakly or less than the wild type. Tags and fused reporters may be left off the sequences shown.

The target in the assay is T1, GST-tagged E. coli hinT H101N (E. coli) (UniProt P0ACE7).
T1 sequence: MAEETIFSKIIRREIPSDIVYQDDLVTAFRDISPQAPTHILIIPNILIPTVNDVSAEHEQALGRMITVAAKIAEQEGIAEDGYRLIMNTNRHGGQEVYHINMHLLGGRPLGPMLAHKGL
As to the kind of experiment: pull-down; 4 μg GST-hinT H101N on glutathione beads, 9 mg lysate of YUMM3.3ΔSelO cells stably expressing SelO, SelO D338A or SelO V334A, overnight at 4 °C; immunoblot with α-AMP, α-Glud1, α-pdhB, α-acat1, α-OGDH; only the target purified. A general note: A western blot detects proteins with antibodies after separation by electrophoresis.

For the substance “AMPylated Glud1 (glutamate dehydrogenase), endogenous in YUMM3.3 cells expressing SelO (from UniProt P26443 54-558) (enzyme)”, the binding entry is recorded as “binds”.
